According to the supplement of paper PMC5407854, “Inhibitor of ppGalNAc-T3-mediated O-glycosylation blocks cancer cell invasiveness and lowers FGF23 levels” (eLife, 2017):
The full ranking holds about 1,700 compounds; the median of “T3 sensor activation Q score (MG/GFP ratio z-score vs DMSO controls)” is about 0.25, and the highest 2% start at about 1.9. The list shows a part of the results.

What follows are molecules tested on ppGalNAc-T3 sensor (assay: T3 sensor activation Q score (MG/GFP ratio z-score vs DMSO controls) (SD units); higher = more sensor activation (inhibition of ppGalNAc-T3 glycosylation)). Settings: HEK293 sensor cells; 10 µM; 6 h.
Method: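 Cells were treated with compound at 10 uM for 6 h, then MG/GFP ratio was read by flow cytometry (10,000 cells per well, duplicate wells). Q = (R - R_neg)/SD_neg relative to DMSO vehicle controls; the signal rises when the glycosyltransferase is inhibited.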

Row | Structure (SMILES) | T3 sensor activation Q score
1 | S=C1NC2(CCCCCC2)NN1c1ccccc1 | 0.5
2 | COC1OC(O)C(NC(=O)C(F)(F)F)CC1O (configuration not stated) | 1.55
3 | Nc1cc([N+](=O)[O-])ccc1N1C(=O)CCCC1=O | 0.9
4 | CCc1c(N=O)c(-c2ccccc2)n(O)[n+]1[O-] | 1
5 | COC(=O)c1c(-c2ccccc2)[nH]c(-c2nccc3ccccc23)c1C(=O)OC | 0.5
6 | O=C(O)c1ccc2c(c1Nc1ccccc1)C(=O)c1ccccc1C2=O | 0.8
7 | O=NN(CCCl)C(=O)NC1CCCCC1 | 0.45
8 | CSc1nc(=O)[nH]nc1Sc1ccccc1 | -1.1
9 | Cc1cccc(Nc2sc(C(=O)c3cc4cc(Cl)ccc4o3)c(N)c2C#N)c1 | 1.05
10 | Cc1ccc(NC(=O)Nc2c(Cl)cccc2Cl)cn1 | -0.65
11 | Cn1c(=O)c2c(nc(Cc3ccccc3)n2C)n(C)c1=O | 1.9
12 | O=C1c2ccccc2C(=O)c2[nH]cnc21 | 1.1
13 | COC(=O)c1ccc(C(=O)OC)c(=O)[nH]1 | 1.65
14 | Cc1cc(=O)c2c(C)ccc(C)c2[nH]1 | -0.45
15 | Cc1nc2cc[nH]n2c(=O)c1CCc1ccccc1 | 0.05
16 | COc1ccccc1/C=C/C(=O)/C=C/c1ccccc1O | -1.3
17 | COC(=O)Cc1[nH]c(=S)[nH]c1C(=O)OC | 0.85
18 | CC(=O)[C@H]1CC[C@H]2[C@@H]3CCC4=CC(=O)C=C[C@]4(C)[C@H]3C(=O)C[C@]12C | 1.7
19 | CC(=O)[C@H]1CC[C@H]2[C@@H]3CCC4=CC(=O)CC[C@]4(C)[C@@]3(F)[C@@H](O)C[C@]12C | 0.55
20 | N#CC1=C(Nc2ccccc2Cl)SC(c2ccccc2O)NC1=O (configuration not stated) | -0.7
21 | CN(C)S(=O)(=O)Nc1cccc(Br)c1 | 1.8

Row | Structure (SMILES) | T3 sensor activation Q score
22 | CC1CCC(C(C)C)C(NC(=O)c2ccncc2)C1 (configuration not stated) | -0.3
23 | CN(C)S(=O)(=O)Nc1ccccn1 | 0.55
24 | O=C1C2C3C=CC(CC3)C2S(=O)(=O)C2C3C=CC(CC3)C12 (configuration not stated) | 0.5
25 | C=CCNC(=S)NCC=C | 0.35
26 | Cc1cccc(NC(=S)Nc2cccc(C)n2)n1 | 0.45
27 | ClN=C1C=CC=CC1=NCl | -0.05
28 | N#CC1=C(Nc2ccccc2Cl)SC(c2ccncc2)NC1=O (configuration not stated) | 0.1
29 | CN(C)N1C(=O)c2c(Cl)c(Cl)c(Cl)c(Cl)c2C1=O | 0.75
30 | c1ccc(-c2ccc3c(c2)NC(C2Nc4cc(-c5ccccc5)ccc4O2)O3)cc1 (configuration not stated) | -0.05
31 | Cc1cc(NC(=O)Nc2cc(Cl)ccc2C)no1 | 0.5
32 | Clc1nnc2c3ccccc3ccn12 | 0.05
33 | Cc1nc(N)[nH]c(=O)c1CCCNc1ccc(CCC2(CCl)OCCO2)cc1 | -0.35
34 | O=C1OCC/C1=C\c1ccc(O)cc1 | 0.05
35 | O=C(Cn1ccc(=O)[nH]c1=O)Nc1ccc(C(=O)O)c(O)c1 | 0.45
36 | C=C(C)CN=CC1(C)CCC(C)=CO1 (configuration not stated) | -0.5
37 | Nc1cccc2c1CN(C1CCC(=O)NC1=O)C2=O (configuration not stated) | -0.35
38 | c1ccc2sc(SCSc3nc4ccccc4s3)nc2c1 | -1.5
39 | CCCNC(=O)Nc1ccc(C)cc1C | 1.4
40 | S=c1[nH]c2cc(-c3ccccc3)ccc2o1 | 0.8
41 | NC(N)=Nc1nc2ccc([N+](=O)[O-])cc2[nH]1 | -0.35
42 | C(=C\c1ccc(/C=C/c2ccccc2)nn1)/c1ccccc1 | 1.1

Row | Structure (SMILES) | T3 sensor activation Q score
43 | Cc1ccc2nc(Cl)cc(=O)n2c1 | 1.45
44 | COc1ccc(C(=S)N2CCN(c3cccc(Cl)c3)CC2)cc1 | -0.25
45 | CCOC(=O)c1nnsc1-c1ccc(-c2snnc2C(=O)OCC)cc1 | 0.95
46 | CNC(=O)Nc1ccc(S(N)(=O)=O)cc1 | 1.6
47 | O=C(Oc1ccc[nH]c1=O)c1cccc(Cl)c1 | 0.35
48 | Nc1nc(Nc2ccccc2)n[nH]1 | -0.55
49 | O=C(Nc1ccc2ncccc2c1)Nc1ccc2ncccc2c1 | 0.15
50 | COc1ccc(N=Nc2c(N)n[nH]c2N)cc1 | -0.2
51 | Oc1ccc(N=Nc2nccs2)c(O)c1 | -1.2
52 | Cc1nnc(Cc2ccccc2)c2n[nH]c(C)c12 | 0.2
53 | NNC(=O)CNc1cccc(Br)c1 | 0.75
54 | O=C(Nc1cc(-c2ccccc2)[nH]n1)c1ccc(Cl)cc1 | -0.1
55 | COC(=O)c1c[n+]([O-])ccc1OC | -0.5
56 | COc1ccc(C(=S)N2CCN(c3ccccc3Cl)CC2)cc1OC | 0.75
57 | O=C1C(Cl)=C(O)C2(Cl)C(Cl)=C(Cl)C12Cl (configuration not stated) | 0.7
58 | Cc1cccc2cc3cccc(C)c3nc12 | -0.55
59 | CCOC(=O)c1cnc(SCC)[nH]c1=O | 0
60 | O=C(NCc1ccco1)Nc1ccc([N+](=O)[O-])cc1 | 0
61 | O=C(O)C1=NN(c2cc(Cl)c(S(=O)(=O)O)cc2Cl)C(=O)C1 | 0.8
62 | NC(=O)c1ncn2c(=O)n(CCCl)nnc12 | 0.6
63 | CC1OC1c1ccc(-c2ccc(C3OC3C)cc2)cc1 (configuration not stated) | 0.7

By substructure, those above with a furan ring, fused or not (two)
Row | Structure (SMILES) | T3 sensor activation Q score
9 | Cc1cccc(Nc2sc(C(=O)c3cc4cc(Cl)ccc4o3)c(N)c2C#N)c1 | 1.05
60 | O=C(NCc1ccco1)Nc1ccc([N+](=O)[O-])cc1 | 0

Remaining list, next part:

Row | Structure (SMILES) | T3 sensor activation Q score
64 | CN(C)CCCN1c2ccc3ccccc3c2Sc2cccc(Cl)c21 | -0.4
65 | CC(=O)O[C@H]1CC[C@@]2(C)[C@@H](CC[C@@H]3[C@@H]2CC(=O)[C@@]2(C)[C@H]3C[C@@H]3CC(C)=CC(=O)[C@@H]32)C1 | -1.1
66 | CCCCCCC(C)OC(=O)c1ccccc1C(=O)O (configuration not stated) | 0.05
67 | Clc1cc2c(c(CSc3nc4ccccc4n4cccc34)c1)OCOC2 | 1.35
68 | O=C(Nc1ccc(Br)cc1)Nc1ccccc1Cl | 1.5
69 | CCC(C)Oc1nc2c(c(=O)n(C)c(=O)n2C)n1C (configuration not stated) | 0.9
70 | C=CCN(CC=C)C(=O)Nc1cc(OC)ccc1OC | -0.15
71 | COc1ccc(OC(=O)Nc2ccc([N+](=O)[O-])cc2OC)cc1 | -0.7
72 | C[C@]12CC[C@@H]3c4ccc(OCC(=O)O)cc4CC[C@H]3[C@@H]1CCC2=O | -1.05
73 | O=C(Oc1ccccc1)N(c1ccccc1)c1ccccc1 | 0.75
74 | COC(=O)C1=CC(=O)N2CCN=C2S1 | 0.25
75 | COC(=O)CC1OCC=C2CN3CCC45C6=CC(=O)C(=O)C([N+](=O)[O-])=C6NC4C1C2CC35 (configuration not stated) | -0.2
76 | CCCCCC(=O)N1CCCCC1 | -1.55
77 | CN(C)c1ccc(N=Nc2ccccn2)cc1 | -0.95
78 | N[C@H](C(=O)O)[C@H]1ON=C(Cl)[C@H]1O | -0.15
79 | O=C(/C=C/c1ccccc1)CC(c1ccccc1)N1CCOCC1 (configuration not stated) | 0.15
80 | Nc1ccn(C2OC(CCl)C(O)C2O)c(=O)n1 (configuration not stated) | 1.2
81 | O=[N+]([O-])c1ccc(/C=C/c2ccncc2)cc1 | 1.1
82 | Nc1nc2[nH]cc(CCc3ccc(C(=O)N[C@@H](CCC(=O)O)C(=O)O)cc3)c2c(=O)[nH]1 | -0.35
